Tests used:
[1] = general procedure: Fmoc solid-phase peptide synthesis; Fmoc-Ala-CTC resin; HATU/DIPEA (automated); details: whole synthesis, overall, scale 0.05 mmol
[2] = general procedure: Fmoc solid-phase peptide synthesis; Fmoc-Ala-Wang resin; HATU/DIPEA (automated); details: whole synthesis, overall, scale 0.25 mmol
[3] = general procedure: Fmoc solid-phase peptide synthesis; preloaded Wang resin (Fmoc-Ala-Wang 0.29 mmol/g) or 2-chlorotrityl chloride (CTC) resin; Fmoc-Ala-CTC resin (0.68 mmol/g); HATU/DIPEA (automated); details: whole synthesis, overall, scale 0.25 mmol

## Oct-Ala9
[1]
  isolated yield: 11%

## Oct-Dab9
[1]
  isolated yield: 12%

## Oct-Glu9
[1]
  isolated yield: 12%

## Oct-Gly9
[1]
  isolated yield: 10%

## Oct-His9
[1]
  isolated yield: 16%

## Oct-Ile9
[1]
  isolated yield: 16%

## Oct-Ser9
[1]
  isolated yield: 16%

## Oct-TriA1
[2]
  isolated yield: 19%

## Oct-TriA5
[2]
  isolated yield: 23%

## Oct-TriD
[3]
  isolated yield: 51%

## Oct-Tyr9
[1]
  isolated yield: 16%

## Oct-Val9
[1]
  isolated yield: 11%
